According to US6534277B1, “Method for identifying a compound to be tested for an ability to reduce immune rejection by determining Stat4 and Stat6 proteins” (Millennium Pharmaceuticals, Inc., priority 2000, dated 2003):
For at least one compound, name, drawing or mass did not settle the structure.

Tested on: BALB/c cardiac allograft in B6/129 wild-type mice
Assay: Heterotopic cardiac allograft survival, BALB/c donors into B6/129 wild-type recipients
Format: in vivo, mouse
Details: with CD154 mAb/DST; rapamycin 0.2 mg/kg/d i.p., cyclosporin A 10 mg/kg/d i.p., methylprednisolone 1 mg/kg i.p., PS-519 1 mg/kg/d i.p.; p<0.001
Protocol: Heterotopic cardiac allografting was performed with anastomoses to the abdominal aorta and vena cava (Hancock et al., 1998, Nature Medicine 4:1392-1396), using BALB/c donors and B6/129 wild-type or […] mice as recipients. Recipients were treated with hamster IgG or hamster anti-mouse (CD40L mAb; 250 μg, administered intravenously) plus DST (5×10^6 splenic mononuclear cells) at the time of transplantation (Hancock et al., 1998, Nature Medicine 4:1392-1396).
Heterotopic cardiac allografting was performed with anastomoses to the abdominal aorta and vena cava (Hancock, W. W. et al., 1998, Nature Medicine 4:1392-1396), using BALB/c donors and B6/129 wild-type or NF-κB/p50 KO mice as recipients (n=6/group). Recipients were treated with hamster IgG or hamster anti-mouse CD154 mAb (250 μg, i.v.) plus DST (“donor specific transfusion”; 5×10^6 splenic mononuclear cells) at the time of transplantation (Hancock, W. W. et al., 1998, Nature Medicine 4:1392-1396). […] Graft survival was monitored by daily palpation, and rejection was confirmed by laparotomy and histologic evaluation.
Heterotopic cardiac allografting was performed with anastomoses to the abdominal aorta and vena cava, using BALB/c donors and B6/129 wild-type or Stat-6 KO mice as recipients (n=6/group). […] Graft survival was monitored by daily palpation and rejection was confirmed by laparotomy and histologic evaluation.

Structure (SMILES): CO[C@H]1C[C@@H]2CC[C@@H](C)[C@@](O)(O2)C(=O)C(=O)N2CCCC[C@H]2C(=O)O[C@H]([C@H](C)C[C@@H]2CC[C@@H](O)[C@H](OC)C2)CC(=O)[C@H](C)/C=C(\C)[C@@H](O)[C@@H](OC)C(=O)[C@H](C)C[C@H](C)/C=C/C=C/C=C/1C [rapamycin]
- effect of concomitant agent on the effects (efficacy) of CD154 mAb therapy on allograft survival: not
